Test results from patent US10344049B2, “Substituted steroids for the treatment of cancer” (AQUAVAN TECHNOLOGY CO., LTD., priority 2017, dated 2019).
Some entries share one result that the patent states for a list of compounds.

Key:
[1] = system: human breast cancer cells MDA-MB-468; assay: Cell viability test (Resazurin), MDA-MB-468 cells; type: cell-based; details: grade of the IC50 of Table 2, read-out: evaluation of ability to inhibit cell growth activity (IC50)
Protocol: (§1) Cell viability was determined with Resazurin (at a final concentration of 25 μg/mL).

[2] = system: human leukemia cells U937; assay: Cell viability test (Resazurin), U937 cells; type: cell-based; details: grade of the IC50 of Table 2, read-out: evaluation of ability to inhibit cell growth activity (IC50)
Protocol: as §1

SMILES: COC1O[C@]23C=C[C@@H]4[C@@]1(CC[C@]1(C)[C@@H]([C@H](C)C/C=C/C(C)(C)OC)CC[C@@]41C)[C@@H]2CC[C@H](O)C3(C)C (some centres unmarked) [Compound 17]
- IC50 [1]: 8 to 16 µM
- IC50 [2]: 8 to 16 µM
